PubChem BioAssay AID652243 – Drosophila RNAi Screening Center | 2013

Test: 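Fly genes required for human androgen receptor driven transcription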 (primary screen)
Cell system: Drosophila S2R+ cells
Knock-down reagent: long dsRNA against Drosophila genes
Timing: 72 h (48 h, then 24 h hormone)
Treatment: synthetic androgen R1881 at 10 nM for 24 h
Measurement: 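Firefly light from an androgen-responsive reporter and Renilla control light per well, raw and unnormalised, for each of two replicates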
Scale: firefly reporter light: higher = more light from androgen-responsive reporter; Renilla control light: higher = more constitutive control signal (cell number, transfection)
Rule for the call: 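Hit when the log firefly-to-Renilla ratio dropped or increased by a fixed fold versus the mean of GFP or LacZ controls across duplicate plates; lowering cut given as 1.5 and as 3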
Calls: active = hit: reporter lowered or raised; inactive = no hit
The deposit covers about 24,000 reagents; below is a random part of those that have a named target and a result. In the full data, 246 (1%) are marked active. 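Plates not normalised; calls are printed but the firefly/Renilla ratio behind them is not deposited; fold cut for lowering reported inconsistently.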 The raw values are shown without normalisation. The numbers tell different reagents against one gene apart. Not given: the amount of reagent.

target | dsRNA no. | firefly reporter light, replicate 1 | firefly reporter light, replicate 2 | Renilla control light, replicate 1 | Renilla control light, replicate 2 | Call
Pldn | 1 | 3.01e5 | 3.12e5 | 3.54e6 | 2.72e6 | inactive
Pldn | 2 | 4.93e5 | 7.32e5 | 1.34e6 | 2.04e6 | inactive
Saysd1 | 1 | 1.46e5 | 2.02e5 | 1.94e6 | 2.33e6 | inactive
G6P | 1 | – | – | – | – | inactive
G6P | 2 | 2.63e5 | 3.26e5 | 7.36e5 | 7.21e5 | inactive
G6P | 3 | – | – | – | – | inactive
spen | 1 | 9.00e5 | 7.40e5 | 4.37e6 | 2.42e6 | inactive
spen | 2 | 5.37e5 | 4.51e5 | 1.69e6 | 1.53e6 | inactive
Grl62c | 1 | 7.61e5 | 6.75e5 | 1.89e6 | 2.50e6 | inactive
CG6073 | 1 | 5.44e5 | 6.24e5 | 4.78e6 | 2.60e6 | inactive
CG6073 | 2 | 5.07e5 | 4.99e5 | 1.38e6 | 1.15e6 | inactive
CG6073 | 3 | 4.45e5 | 4.86e5 | 1.25e6 | 1.15e6 | inactive
AstC | 1 | 2.64e5 | 2.43e5 | 1.97e6 | 2.28e6 | inactive
VhaM9.7-a | 1 | 1.34e5 | 1.92e5 | 3.10e6 | 3.34e6 | inactive
VhaM9.7-a | 2 | 2.53e5 | 4.12e5 | 1.29e6 | 2.14e6 | inactive
ND-20 | 1 | 1.06e5 | 98887 | 7.92e5 | 8.64e5 | inactive
CG15708 | 1 | 56622 | 1.01e5 | 1.53e6 | 1.53e6 | inactive
Lamtor3 | 1 | 2.21e5 | 2.26e5 | 1.38e6 | 2.13e6 | inactive
Blos4 | 1 | 2.75e5 | 1.99e5 | 2.98e6 | 2.46e6 | inactive
Blos4 | 2 | 1.57e5 | 2.57e5 | 2.66e5 | 8.25e5 | inactive
Prim1 | 1 | 1.63e5 | 1.61e5 | 2.12e6 | 1.88e6 | inactive
Swip-1 | 1 | 8.94e5 | 1.23e6 | 1.70e6 | 1.33e6 | inactive
Swip-1 | 2 | 2.23e5 | 2.72e5 | 2.08e6 | 2.46e6 | inactive
al | 1 | 6.47e5 | 6.93e5 | 1.64e6 | 1.86e6 | inactive
CG34298 | 1 | 7.70e5 | 6.17e5 | 1.42e6 | 1.83e6 | inactive
Naprt | 1 | 8.10e5 | 9.38e5 | 3.12e6 | 2.80e6 | inactive
Naprt | 2 | 4.58e5 | 4.83e5 | 1.31e6 | 1.56e6 | inactive
CG15093 | 1 | 3.80e5 | 2.74e5 | 5.57e5 | 4.20e5 | inactive
CG15093 | 2 | 8.00e5 | 8.11e5 | 7.88e5 | 7.83e5 | inactive
Grd | 1 | 2.67e5 | 1.86e5 | 1.98e6 | 2.04e6 | inactive
Grd | 2 | 1.94e5 | 4.11e5 | 5.49e5 | 9.59e5 | inactive
Ilp1 | 1 | 3.19e5 | 2.65e5 | 2.43e6 | 1.97e6 | inactive
CG8042 | 1 | 7.36e5 | 2.51e5 | 1.52e6 | 9.47e5 | inactive
CG8042 | 2 | 8.75e5 | 7.12e5 | 1.03e6 | 1.13e6 | inactive
ppl | 1 | 52154 | 78331 | 3.37e5 | 5.45e5 | inactive
ppl | 2 | 4.57e5 | 4.15e5 | 5.20e5 | 8.40e5 | inactive
CG14219 | 1 | 95842 | 80176 | 1.06e5 | 82349 | inactive
CG14219 | 2 | 2.88e5 | 2.37e5 | 7.25e5 | 7.35e5 | inactive
CG2129 | 1 | 41201 | 24383 | 2.73e5 | 2.80e5 | inactive
CG2129 | 2 | 7.04e5 | 5.86e5 | 3.25e5 | 5.14e5 | inactive
Ugt50B3 | 1 | 1.82e5 | 2.81e5 | 3.90e5 | 4.39e5 | inactive
Ugt50B3 | 2 | 2.68e5 | 3.01e5 | 1.61e6 | 1.40e6 | active

Reprinted from above for reference:
target | dsRNA no. | firefly reporter light, replicate 1 | firefly reporter light, replicate 2 | Renilla control light, replicate 1 | Renilla control light, replicate 2 | Call
CG6073 | 3 | 4.45e5 | 4.86e5 | 1.25e6 | 1.15e6 | inactive
AstC | 1 | 2.64e5 | 2.43e5 | 1.97e6 | 2.28e6 | inactive
VhaM9.7-a | 1 | 1.34e5 | 1.92e5 | 3.10e6 | 3.34e6 | inactive
VhaM9.7-a | 2 | 2.53e5 | 4.12e5 | 1.29e6 | 2.14e6 | inactive
ND-20 | 1 | 1.06e5 | 98887 | 7.92e5 | 8.64e5 | inactive
CG15708 | 1 | 56622 | 1.01e5 | 1.53e6 | 1.53e6 | inactive
Lamtor3 | 1 | 2.21e5 | 2.26e5 | 1.38e6 | 2.13e6 | inactive
Blos4 | 1 | 2.75e5 | 1.99e5 | 2.98e6 | 2.46e6 | inactive
Blos4 | 2 | 1.57e5 | 2.57e5 | 2.66e5 | 8.25e5 | inactive

Next records:
target | dsRNA no. | firefly reporter light, replicate 1 | firefly reporter light, replicate 2 | Renilla control light, replicate 1 | Renilla control light, replicate 2 | Call
Pgcl | 1 | 3.89e5 | 3.63e5 | 3.70e6 | 3.24e6 | inactive
Pbgs | 1 | 2.07e5 | 2.14e5 | 1.83e6 | 1.87e6 | inactive
NimB4 | 1 | 7.88e5 | 1.14e6 | 1.47e6 | 1.72e6 | inactive
NimB4 | 2 | 5.98e5 | 7.36e5 | 1.04e6 | 1.33e6 | inactive
CG34451 | 1 | 1.66e6 | 1.65e6 | 2.83e6 | 2.26e6 | inactive
Alg3 | 1 | 1.12e6 | 2.87e5 | 1.94e6 | 7.71e5 | inactive
PpY-55A | 1 | 83203 | 1.04e5 | 1.28e6 | 1.28e6 | inactive
PpY-55A | 2 | 9.14e5 | 9.21e5 | 1.10e6 | 9.29e5 | inactive
PpY-55A | 3 | 3.96e5 | 3.01e5 | 3.78e5 | 1.32e5 | inactive
mRpL42 | 1 | 2.24e5 | 1.42e5 | 1.35e6 | 9.91e5 | inactive
Nepl9 | 1 | 1.15e5 | 1.53e5 | 1.72e6 | 1.78e6 | inactive
nSyb | 1 | 3.81e5 | 3.45e5 | 1.27e6 | 8.02e5 | inactive
nSyb | 2 | 8.32e5 | 9.56e5 | 1.08e6 | 1.38e6 | inactive
nSyb | 3 | 3.46e5 | 3.54e5 | 7.87e5 | 7.45e5 | inactive
nSyb | 4 | 4.86e5 | 4.86e5 | 1.17e6 | 8.98e5 | inactive
scrib | 1 | 1.02e5 | 79720 | 1.67e5 | 1.45e5 | inactive
scrib | 2 | 64727 | 78148 | 1.74e5 | 1.78e5 | inactive
scrib | 3 | 70917 | 49372 | 4.50e5 | 5.61e5 | inactive
scrib | 4 | 1.12e5 | 1.75e5 | 1.80e6 | 1.66e6 | inactive
scrib | 5 | 6.10e5 | 1.07e6 | 7.86e5 | 9.40e5 | inactive
scrib | 6 | 5.42e5 | 6.94e5 | 1.08e6 | 1.32e6 | inactive
